According to patent US20200155555A1, “VITAMIN RECEPTOR DRUG DELIVERY CONJUGATES FOR TREATING INFLAMMATION” (Endocyte, Inc., priority 2007, published 2020):
“Also recorded” adds a separate entry of the source. At least one peptide structure holds a part that was inferred or is arguable (an end, a ring closure or a residue).

Sequences of proteins named here, by UniProt entry; tags and fusion partners are left off. Residues count along the entry.
UniProt P15328, 25-234: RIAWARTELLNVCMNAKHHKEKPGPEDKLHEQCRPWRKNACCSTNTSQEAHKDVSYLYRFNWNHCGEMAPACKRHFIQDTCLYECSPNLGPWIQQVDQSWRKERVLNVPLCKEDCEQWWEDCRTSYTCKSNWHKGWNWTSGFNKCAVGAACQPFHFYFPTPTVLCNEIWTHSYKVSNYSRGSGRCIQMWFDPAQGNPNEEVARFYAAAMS
UniProt P14207, 17-230: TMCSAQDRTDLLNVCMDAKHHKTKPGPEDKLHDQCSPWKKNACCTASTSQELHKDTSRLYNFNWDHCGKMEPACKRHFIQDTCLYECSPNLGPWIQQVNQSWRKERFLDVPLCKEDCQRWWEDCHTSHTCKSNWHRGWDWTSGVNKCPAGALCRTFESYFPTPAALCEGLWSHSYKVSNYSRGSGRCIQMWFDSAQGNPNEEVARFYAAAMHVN

Columns and labels:
[1] = test system: rats with collagen-induced arthritis (CIA); assay: Collagen-induced arthritis (CIA) model; format: in vivo, female Lewis rats; details: EC0746 sc, 500 nmol/kg days 10 and 15, 100 nmol/kg days 11-14 and 16-19
[2] = test system: Proliferating Cell Nuclear Antigen (PCNA) in RAW264.7 cells; assay: Western blot for proliferating cell nuclear antigen; format: cell-based, murine; details: EC0746-treated RAW264.7 cells
[3] = biological target: folate receptors (FR-α) of KB cells (Homo sapiens, UniProt P15328); details: competitive binding with 3H-folic acid, FR-α positive KB cells
[4] = test system: rats with adjuvant-induced arthritis (AIA); assay: Adjuvant-induced arthritis (AIA) model; parameters: ED50 for treatment of adjuvant-induced arthritis in female Lewis rats: unit not given beside the values; details: for Splenomagly (% increase in spleen weight relative to healthy rats) / % Inhibition in paw edema / % Weight loss: AIA rats, sc; for % Inhibition in paw edema: Day 24; for % Weight loss: Day 24 relative to first day of treatment; for improvement in percent increase in paw weight / improvement in percent increase in spleen weight: sc 500 nmol/kg/dose biweekly, 2 weeks
Procedure: Female Lewis rats were fed a folate-deficient diet (Harlan Teklad, Indianapolis, Ind.) for 9-10 days prior to arthritis induction. The adjuvant-induced arthritis (AIA) was induced by intradermal inoculation (at the base of tail) of 0.5 mg of heat-killed Mycobacteria butyricum (BD Diagnostic Systems, Sparks, Md.) in 100 μL light mineral oil (Sigma). Ten days after arthritis induction, paw edema in rats was assessed using a modified arthritis scoring system: 0=no arthritis; 1=swelling in one type of joint; 2=swelling in two types of joint; 3=swelling in three types of joint; 4=swelling of the entire paw. A total score for each rat is calculated by summarizing the scores for each of the four paws, giving a maximum score of 16 for each rat. On Day 10 post arthritis induction, rats with a total arthritis score of ≥2 were removed from the study and the remaining rats were distributed evenly across the control and treatment groups (n=5 for all groups except that n=2-3 for healthy controls). All treatments started on Day 10 unless mentioned otherwise. […]
Rats with adjuvant arthritis were treated subcutaneously with EC0932 (250 nmol/kg) in the absence or presence of 500-fold excess of EC0923 (125 μmol/kg) on days 10, 13, 17, and 20 post arthritis induction. The animals in the healthy and arthritis control groups were left untreated. The arthritis scores and animal body weights were recorded three times a week (see FIG. 19A, B). At the completion of study (day 24), the rats were euthanized by CO2 asphyxiation and processed for paw and spleen weights (see FIG. 20A, B).
The rat adjuvant induced arthritis (AIA) model resembles the characteristics of RA in humans and has been widely used to study the impact of novel anti-inflammatory agents.

[5] = test system: TNF-α production in RAW264.7 cells; assay: LPS-stimulated TNF-α production (ELISA); format: cell-based, murine; details: 2 h treatment, then 70-72 h in drug-free medium; LPS 100 ng/mL for last 4 h; read-out: EC50 (ED50), inhibition of LPS-stimulated TNF-α production
[6] = test system: RAW264.7 cells; assay: Cell cycle analysis by FACS with propidium iodide; format: cell-based, murine; details: RAW264.7 cells pre-treated with EC0746, PI staining; competable by excess folic acid
[7] = test system: RAW264.7 cells; assay: XTT cell viability / proliferation assay; format: cell-based, murine
Procedure: After 2 h incubation, the drug-containing media were replaced and the cells were allowed to incubate further for 70 h. Four hours prior to the end of incubation, LPS was added to the treated cells at a final concentration of 100 ng/mL. 100 μL of the culture supernatants were collected for TNF-α analysis using a commercial ELISA kit.
RAW264.7 cells in 96-well plates were treated with vehicle (culture medium) or 10-fold serial dilutions of EC0932 without or with 100-fold excess free folate. The drug-containing medium was replaced after 2 h treatment and the cells were allowed to incubate further in standard medium for 70 h. Four hours prior to the end of incubation, LPS was added to the treated cells at a final concentration of 100 ng/mL. […] The cell viability was assessed by adding XTT (2,3-bis(2-methoxy-4-nitro-5-sulfo-phenyl)-2H-tetrazolium-5-carboxanilide) to the remaining medium for an additional 4 h following the manufacturer's instructions (Roche Applied Science, Indianapolis, Ind.).
At 4 h before the end of incubation, LPS (100 ng/ml) was added to the culture medium to stimulate cytokine production.

[8] = test system: rats with experimental autoimmune uveitis (EAU); assay: Experimental autoimmune uveitis (EAU) model; format: in vivo, female Lewis rats; details: EC0746 sc 500 nmol/kg every other day from day 7 after EAU induction
[9] = biological target: folate-receptor-beta positive CHO-FR-β cells (Homo sapiens, UniProt P14207); details: displacement of 3H-folic acid
[10] = EC0746 250 nmol/kg/dose plus 500-fold excess EC0923
[11] = EC0746 sc 250 nmol/kg/dose biweekly 2 weeks
[12] = rats with low arthritis (early-onset)
[13] = rats with more established arthritis
[14] = sc 500 nmol/kg on days 10, 13, 17, 20

## N=c1[nH]c(N)nc2ncc(CNc3ccc(C(=O)N[C@@H](CCC(=O)NNC(=O)OCCSSC[C@H](NC(=O)[C@H](CCC(=O)NC[C@H](O)[C@@H](O)[C@H](O)[C@H](O)CO)NC(=O)[C@H](CCC(=O)O)NC(=O)[C@H](CCC(=O)NC[C@H](O)[C@@H](O)[C@H](O)[C@H](O)CO)NC(=O)[C@H](CCC(=O)O)NC(=O)[C@H](CCC(=O)NC[C@H](O)[C@@H](O)[C@H](O)[C@H](O)CO)NC(=O)CC[C@H](NC(=O)c4ccc(NCc5cnc6nc(N)[nH]c(=O)c6n5)cc4)C(=O)O)C(=O)O)C(=O)O)cc3)nc12 [EC0746]
[1]
  efficacy in collagen-induced arthritis: also effective in rats with collagen-induced arthritis
[2]
  PCNA expression vs untreated cells: no change in PCNA expression
[3]
  Relative affinity to folate receptors (folic acid set as 1): 0.50
[4]; 25 nmol/kg biw
  Splenomagly (% increase in spleen weight relative to healthy rats): 73 ± 8%
  % Inhibition in paw edema: 0 ± 25 %
  % Weight loss: −17 ± 1%
[4]; 100 nmol/kg biw
  Splenomagly (% increase in spleen weight relative to healthy rats): 52 ± 13%
  % Inhibition in paw edema: 35 ± 11 %
  % Weight loss: −14 ± 1%
[4]; 250 nmol/kg biw
  Splenomagly (% increase in spleen weight relative to healthy rats): 25 ± 6%
  % Inhibition in paw edema: 91 ± 4 %
  % Weight loss: −0.5 ± 3%
[4]; 500 nmol/kg biw
  Splenomagly (% increase in spleen weight relative to healthy rats): 37 ± 7%
  % Inhibition in paw edema: 91 ± 9%
  % Weight loss: 0.4 ± 4%
[4]; 1000 nmol/kg qw
  Splenomagly (% increase in spleen weight relative to healthy rats): 39 ± 5%
  % Inhibition in paw edema: 72 ± 12%
  % Weight loss: −7 ± 3%
[4]; EC0746 250 nmol/kg/dose biweekly 2 weeks with 500-fold excess EC0923
  blocking of anti-arthritic activity by folate competitor: nearly completely blocked by the presence of excess EC0923
[4]; [10]
  decrease in all other scored histology parameters (non-significant): 9-21%
  decrease in dorsal to ventral paw thickness: 22%
  decrease in inflammation scores (histology): 24%
[4]; EC0746 25-500 nmol/kg/dose biweekly or 1000 nmol/kg/dose once weekly
  overall efficacy against AIA in dose/schedule study: very effective against AIA
[4]; [11]
  animals with no lesions (histology): 3 of 5
  decrease in dorsal to ventral paw thickness: 94%
  decrease in summed histology scores vs untreated arthritic controls: 94%
  decreases in individually scored histology parameters vs untreated arthritic controls: 88-100%
  radiographic analysis of hind paws: minimum radiographic changes
[4]; EC0746 sc 250 nmol/kg/dose, 4 doses in 2 weeks
  efficacy compared with oral MTX and s.c. etanercept: more efficacious than oral MTX; also recorded: more effective than etanercept in all parameters assessed except for the spleen
[4]; rat, in vivo
  ED50 for treatment of adjuvant-induced arthritis in female Lewis rats: 210
[4]; [12]
  improvement in percent increase in paw weight: approximately 10 fold
  improvement in percent increase in spleen weight: ~3 fold
[4]; [13]
  improvement in percent increase in paw weight: ~2.5 fold
  improvement in percent increase in spleen weight: ~2 fold
[4]; sc 300 nmol/kg on days 10, 13, 17, 20
  reduction of local (paw) and systemic (spleen) inflammation: similarly active in reducing local (paw) and systemic (spleen) inflammation
[4]; [14]
  arthritis score, paw weight and spleen weight vs untreated arthritis control: significantly less arthritis score, paw weight (i.e. paw swelling), and spleen weights
  paw swelling and bone erosion, X-ray of hind paws: effectively halted paw swelling/inflammation and prevented bone erosion
[4]; sc 500 nmol/kg with 300-fold excess Re-EC0589 (EC0746) or Re-EC20 (MTX)
  blocking of anti-arthritis activity by FR-binding competitor: could be partially blocked
[5]
  EC50: 1.6 nM
[6]
  cell cycle distribution: increase in number of cells in the S-phase
[7]; 10-fold serial dilutions, 2 h treatment, 70 h chase
  effect on viability of RAW264.7 cells and LPS-stimulated TNF-α production: inhibited the viability of RAW264.7 cells and the ability of these cells to produce TNF-α in response to LPS
[7]; excess folic acid
  anti-proliferative and anti-TNF activities competable with excess folic acid: 100%
[8]
  effect on EAU inflammation: Effectively Reduced EAU Inflammation
[9]
  Relative affinity to folate receptors (folic acid set as 1): 0.270
